Publication doi:10.1101/2025.01.28.635281 (bioRxiv, 2025)
No constants are given. Whether binding was seen depends on the method and setting. Some entries that bind do so weakly or less than the wild type.

Protein sequences, listed by entry. Tags and fused reporters are not part of them. Lines headed by an entry give the natural chain unless they say otherwise; changes in a name come on top.
UniProt P0A6A8, whole entry, looked up, stated change not applied: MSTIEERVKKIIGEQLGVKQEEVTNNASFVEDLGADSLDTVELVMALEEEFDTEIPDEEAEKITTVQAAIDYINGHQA

Molecular target: E47A/E48A double mutant of E. coli acyl carrier protein (E. coli) (UniProt P0A6A8)
Test: NMR titration

binding: binds
B1: Bacillus subtilis Sfp (Surfactin synthetase activating enzyme, 4'-phosphopantetheinyl transferase) (enzyme, UniProt P39135 1-224)
chain: MKIYGIYMDRPLSQEENERFMSFISPEKREKCRRFYHKEDAHRTLLGDVLVRSVISRQYQLDKSDIRFSTQEYGKPCIPDLPDAHFNISHSGRWVICAFDSQPIGIDIEKTKPISLEIAKRFFSKTEYSDLLAKDKDEQTDYFYHLWSMKESFIKQEGKGLSLPLDSFSVRLHQDGQVSIELPDSHSPCYIKTYEVDPGYKMAVCAAHPDFPEDITMVSYEELL
